Measured values as given in PMC7139352.
These are yes or no findings as the source states them, for the method shown. In cells and extracts the contact can be indirect. Some entries that bind do so weakly or less than the wild type. For some assays here: Tags and fused reporters may be left off the sequences shown.

By UniProt entry, the sequences of proteins in these tests, tags left out.
UniProt Q13576: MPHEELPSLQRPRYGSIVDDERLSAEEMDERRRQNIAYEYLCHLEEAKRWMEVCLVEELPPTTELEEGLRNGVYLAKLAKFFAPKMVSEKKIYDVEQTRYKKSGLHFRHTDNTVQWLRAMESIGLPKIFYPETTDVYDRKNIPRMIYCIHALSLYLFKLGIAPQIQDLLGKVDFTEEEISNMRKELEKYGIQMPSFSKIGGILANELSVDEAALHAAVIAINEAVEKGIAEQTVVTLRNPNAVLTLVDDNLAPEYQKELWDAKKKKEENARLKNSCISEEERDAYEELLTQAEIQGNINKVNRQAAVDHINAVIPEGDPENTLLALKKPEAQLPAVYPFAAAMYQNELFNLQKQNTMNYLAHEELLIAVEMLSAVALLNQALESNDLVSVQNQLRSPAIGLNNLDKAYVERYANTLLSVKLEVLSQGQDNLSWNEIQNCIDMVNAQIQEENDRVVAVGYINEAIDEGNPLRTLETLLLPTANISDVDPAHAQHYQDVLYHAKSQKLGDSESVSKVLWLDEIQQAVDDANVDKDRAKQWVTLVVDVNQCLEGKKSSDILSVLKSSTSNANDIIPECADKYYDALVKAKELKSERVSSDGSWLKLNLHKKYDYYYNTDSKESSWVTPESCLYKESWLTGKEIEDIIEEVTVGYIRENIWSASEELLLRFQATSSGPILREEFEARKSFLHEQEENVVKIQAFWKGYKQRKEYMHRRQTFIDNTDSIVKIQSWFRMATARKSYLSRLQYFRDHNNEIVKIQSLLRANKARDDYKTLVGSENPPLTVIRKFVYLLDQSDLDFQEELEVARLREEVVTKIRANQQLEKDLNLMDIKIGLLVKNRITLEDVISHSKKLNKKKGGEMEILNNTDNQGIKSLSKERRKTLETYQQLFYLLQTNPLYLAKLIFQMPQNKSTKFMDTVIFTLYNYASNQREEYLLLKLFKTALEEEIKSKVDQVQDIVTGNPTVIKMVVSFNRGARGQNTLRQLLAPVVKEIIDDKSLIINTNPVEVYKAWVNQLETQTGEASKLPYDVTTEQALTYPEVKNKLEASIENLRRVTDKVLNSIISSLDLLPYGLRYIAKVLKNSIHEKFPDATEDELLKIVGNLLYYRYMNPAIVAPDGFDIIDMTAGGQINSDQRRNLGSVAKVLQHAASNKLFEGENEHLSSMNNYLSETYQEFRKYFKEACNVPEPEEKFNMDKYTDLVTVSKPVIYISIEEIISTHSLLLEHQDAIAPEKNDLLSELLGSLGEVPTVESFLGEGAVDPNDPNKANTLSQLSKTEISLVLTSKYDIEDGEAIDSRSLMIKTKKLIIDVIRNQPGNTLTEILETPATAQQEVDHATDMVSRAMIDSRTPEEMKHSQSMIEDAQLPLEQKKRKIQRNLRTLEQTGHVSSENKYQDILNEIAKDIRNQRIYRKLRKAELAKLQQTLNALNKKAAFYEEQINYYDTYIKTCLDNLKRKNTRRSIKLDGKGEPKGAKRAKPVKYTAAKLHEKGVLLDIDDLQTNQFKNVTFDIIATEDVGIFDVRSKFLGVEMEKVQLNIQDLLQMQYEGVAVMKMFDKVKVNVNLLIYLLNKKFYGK

Tests used:
[1] = molecular target: IQ motif-containing GTPase-activating protein 2 (IQGAP2), endogenous (human (endogenous in SGC-7901 and MGC-803)) (UniProt Q13576); experiment: co-IP; endogenous proteins; lysates of SGC-7901 and MGC-803 (1 mg total protein) with anti-SHIP2 or anti-IQGAP2 antibodies (3 ug) at 4 °C overnight, protein A/G beads, Western blot; IgG as negative control
[2] = molecular target: cMyc-IQGAP2 (pCDNA3.1-cMyc-IQGAP2) (human) (UniProt Q13576); experiment: co-IP; tGFP-tagged SHIP2 constructs and cMyc-IQGAP2 co-transfected into HEK293T; lysates immunoprecipitated with anti-cMyc or anti-tGFP antibodies, Western blot

| Binder | binding [1] | binding [2] |
| --- | --- | --- |
| Src homology 2-containing inositol 5-phosphatase 2 (SHIP2), endogenous (protein, UniProt O15357 1-1258) MASACGAPGPGGALGSQAPSWYHRDLSRAAAEELLARAGRDGSFLVRDSESVAGAFALCVLYQKHVHTYRILPDGEDFLAVQTSQGVPVRRFQTLGELIGLYAQPNQGLVCALLLPVEGEREPDPPDDRDASDGEDEKPPLPPRSGSTSISAPTGPSSPLPAPETPTAPAAESAPNGLSTVSHDYLKGSYGLDLEAVRGGASHLPHLTRTLATSCRRLHSEVDKVLSGLEILSKVFDQQSSPMVTRLLQQQNLPQTGEQELESLVLKLSVLKDFLSGIQKKALKALQDMSSTAPPAPQPSTRKAKTIPVQAFEVKLDVTLGDLTKIGKSQKFTLSVDVEGGRLVLLRRQRDSQEDWTTFTHDRIRQLIKSQRVQNKLGVVFEKEKDRTQRKDFIFVSARKREAFCQLLQLMKNKHSKQDEPDMISVFIGTWNMGSVPPPKNVTSWFTSKGLGKTLDEVTVTIPHDIYVFGTQENSVGDREWLDLLRGGLKELTDLDYRPIAMQSLWNIKVAVLVKPEHENRISHVSTSSVKTGIANTLGNKGAVGVSFMFNGTSFGFVNCHLTSGNEKTARRNQNYLDILRLLSLGDRQLNAFDISLRFTHLFWFGDLNYRLDMDIQEILNYISRKEFEPLLRVDQLNLEREKHKVFLRFSEEEISFPPTYRYERGSRDTYAWHKQKPTGVRTNVPSWCDRILWKSYPETHIICNSYGCTDDIVTSDHSPVFGTFEVGVTSQFISKKGLSKTSDQAYIEFESIEAIVKTASRTKFFIEFYSTCLEEYKKSFENDAQSSDNINFLKVQWSSRQLPTLKPILADIEYLQDQHLLLTVKSMDGYESYGECVVALKSMIGSTAQQFLTFLSHRGEETGNIRGSMKVRVPTERLGTRERLYEWISIDKDEAGAKSKAPSVSRGSQEPRSGSRKPAFTEASCPLSRLFEEPEKPPPTGRPPAPPRAAPREEPLTPRLKPEGAPEPEGVAAPPPKNSFNNPAYYVLEGVPHQLLPPEPPSPARAPVPSATKNKVAITVPAPQLGHHRHPRVGEGSSSDEESGGTLPPPDFPPPPLPDSAIFLPPSLDPLPGPVVRGRGGAEARGPPPPKAHPRPPLPPGPSPASTFLGEVASGDDRSCSVLQMAKTLSEVDYAPAGPARSALLPGPLELQPPRGLPSDYGRPLSFPPPRIRESIQEDLAEEAPCLQGGRASGLGEAGMSAWLRAIGLERYEEGLVHNGWDDLEFLSDITEEDLEEAGVQDPAHKRLLLDTLQLSK | binds |  |
| tGFP-SHIP2 WT (pCMV-AC-GFP-SHIP2) (protein, UniProt O15357 1-1258) MASACGAPGPGGALGSQAPSWYHRDLSRAAAEELLARAGRDGSFLVRDSESVAGAFALCVLYQKHVHTYRILPDGEDFLAVQTSQGVPVRRFQTLGELIGLYAQPNQGLVCALLLPVEGEREPDPPDDRDASDGEDEKPPLPPRSGSTSISAPTGPSSPLPAPETPTAPAAESAPNGLSTVSHDYLKGSYGLDLEAVRGGASHLPHLTRTLATSCRRLHSEVDKVLSGLEILSKVFDQQSSPMVTRLLQQQNLPQTGEQELESLVLKLSVLKDFLSGIQKKALKALQDMSSTAPPAPQPSTRKAKTIPVQAFEVKLDVTLGDLTKIGKSQKFTLSVDVEGGRLVLLRRQRDSQEDWTTFTHDRIRQLIKSQRVQNKLGVVFEKEKDRTQRKDFIFVSARKREAFCQLLQLMKNKHSKQDEPDMISVFIGTWNMGSVPPPKNVTSWFTSKGLGKTLDEVTVTIPHDIYVFGTQENSVGDREWLDLLRGGLKELTDLDYRPIAMQSLWNIKVAVLVKPEHENRISHVSTSSVKTGIANTLGNKGAVGVSFMFNGTSFGFVNCHLTSGNEKTARRNQNYLDILRLLSLGDRQLNAFDISLRFTHLFWFGDLNYRLDMDIQEILNYISRKEFEPLLRVDQLNLEREKHKVFLRFSEEEISFPPTYRYERGSRDTYAWHKQKPTGVRTNVPSWCDRILWKSYPETHIICNSYGCTDDIVTSDHSPVFGTFEVGVTSQFISKKGLSKTSDQAYIEFESIEAIVKTASRTKFFIEFYSTCLEEYKKSFENDAQSSDNINFLKVQWSSRQLPTLKPILADIEYLQDQHLLLTVKSMDGYESYGECVVALKSMIGSTAQQFLTFLSHRGEETGNIRGSMKVRVPTERLGTRERLYEWISIDKDEAGAKSKAPSVSRGSQEPRSGSRKPAFTEASCPLSRLFEEPEKPPPTGRPPAPPRAAPREEPLTPRLKPEGAPEPEGVAAPPPKNSFNNPAYYVLEGVPHQLLPPEPPSPARAPVPSATKNKVAITVPAPQLGHHRHPRVGEGSSSDEESGGTLPPPDFPPPPLPDSAIFLPPSLDPLPGPVVRGRGGAEARGPPPPKAHPRPPLPPGPSPASTFLGEVASGDDRSCSVLQMAKTLSEVDYAPAGPARSALLPGPLELQPPRGLPSDYGRPLSFPPPRIRESIQEDLAEEAPCLQGGRASGLGEAGMSAWLRAIGLERYEEGLVHNGWDDLEFLSDITEEDLEEAGVQDPAHKRLLLDTLQLSK |  | binds |
